Structures were worked out from names or drawings and are uncertain.

Amino acid sequences for entries named in this document (tags omitted).
UniProt P15056, whole entry V600E: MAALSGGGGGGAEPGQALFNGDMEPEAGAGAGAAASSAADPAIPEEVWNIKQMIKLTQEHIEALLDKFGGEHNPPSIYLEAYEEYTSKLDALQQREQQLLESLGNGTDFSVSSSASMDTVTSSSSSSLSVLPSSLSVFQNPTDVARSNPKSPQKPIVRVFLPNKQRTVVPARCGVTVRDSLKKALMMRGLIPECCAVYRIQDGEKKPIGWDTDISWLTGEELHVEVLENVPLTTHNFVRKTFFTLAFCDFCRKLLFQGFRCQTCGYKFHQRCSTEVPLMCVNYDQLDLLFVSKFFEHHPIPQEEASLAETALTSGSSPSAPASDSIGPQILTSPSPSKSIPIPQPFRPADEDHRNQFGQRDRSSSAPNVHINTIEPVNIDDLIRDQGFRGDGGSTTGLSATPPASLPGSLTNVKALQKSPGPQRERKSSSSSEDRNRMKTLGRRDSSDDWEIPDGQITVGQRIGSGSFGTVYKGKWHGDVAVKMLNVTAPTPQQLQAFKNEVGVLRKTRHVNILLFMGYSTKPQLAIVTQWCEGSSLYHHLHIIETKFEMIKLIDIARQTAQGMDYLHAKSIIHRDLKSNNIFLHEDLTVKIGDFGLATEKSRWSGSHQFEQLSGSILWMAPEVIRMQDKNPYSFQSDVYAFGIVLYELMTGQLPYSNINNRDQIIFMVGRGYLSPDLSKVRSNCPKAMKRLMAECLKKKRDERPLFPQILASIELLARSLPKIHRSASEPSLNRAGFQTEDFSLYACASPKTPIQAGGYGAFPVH

In this assay the target is mutant B-RAF (Homo sapiens, UniProt P15056, V600E). The experiment in a line: RAF biochemical assay (MEK-1 phosphorylation, anti-phospho MEK1/2 detection). The note with it: read-out: Mutant B-RAF IC50.
Consider `O=S(=O)(c1ccc(F)cc1)N1CCC(Nc2nccc(-c3c(-c4cccc(O)c4)nc4occn34)n2)CC1`, for which the 50% inhibitory concentration (IC50) was determined as 46 nM.

On to `O=S(=O)(c1ccc(Cl)cc1)N1CCC[C@@H](Nc2nccc(-c3c(-c4cccc(O)c4)nc4occn34)n2)C1`, for which the IC50 came out at 38 nM.

As for `CCCCNC(=O)N1CCC(Nc2nccc(-c3c(-c4cccc(O)c4)nc4sccn34)n2)CC1`, the IC50 is 3000 nM.

For `N#Cc1ccc(S(=O)(=O)N2CCC[C@@H](Nc3nccc(-c4c(-c5cccc(O)c5)nc5occn45)n3)C2)cc1`, the IC50 was 10 nM.

Broadly, the IC50 is the concentration at which inhibition is half-maximal.

(Values after patent publication US7501430B2 (ArQule, Inc., priority 2006, dated 2009).)
